These are yes or no findings as the source states them, for the method shown. In cells and extracts the contact can be indirect. Binding can be weak; no strength is given.
Target: T1, αB-crystallin (human (endogenous in ARPE-19)) (UniProt P02511)
T1 sequence: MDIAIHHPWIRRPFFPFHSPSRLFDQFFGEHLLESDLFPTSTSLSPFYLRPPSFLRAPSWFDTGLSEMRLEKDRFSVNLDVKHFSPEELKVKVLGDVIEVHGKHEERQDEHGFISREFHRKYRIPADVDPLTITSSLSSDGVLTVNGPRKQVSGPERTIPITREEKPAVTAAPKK
Assay: co-IP; endogenous proteins in whole extracts of ARPE-19 cells, untreated control (0 h), with a time course of 2 mM MGO where the binding was only reduced or increased; antibody and protein A-agarose, western blot; precipitating antibody of each panel not told

Sequences of proteins named here, by UniProt entry; tags and fusion partners are left off. A change or cut given only in a name is not applied to a line headed by its entry.
UniProt P55211: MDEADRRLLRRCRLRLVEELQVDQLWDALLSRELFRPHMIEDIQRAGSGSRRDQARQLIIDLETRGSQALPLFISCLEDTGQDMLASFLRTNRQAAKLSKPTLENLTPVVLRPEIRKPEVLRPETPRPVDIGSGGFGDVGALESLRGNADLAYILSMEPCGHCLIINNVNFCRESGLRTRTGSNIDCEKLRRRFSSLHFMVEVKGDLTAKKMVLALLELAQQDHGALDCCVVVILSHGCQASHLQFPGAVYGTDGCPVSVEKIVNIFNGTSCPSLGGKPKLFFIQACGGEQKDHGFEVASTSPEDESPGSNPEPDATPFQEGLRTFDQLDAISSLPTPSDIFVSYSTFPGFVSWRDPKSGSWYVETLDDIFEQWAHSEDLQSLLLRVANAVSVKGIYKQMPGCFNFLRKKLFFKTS

Substance: caspase-9 (from UniProt P55211) (enzyme)
- binding: binds

From article PMC3458930
